Measured values as given in PMC6888875.
No constants are given. Whether binding was seen depends on the method and setting. In cells and extracts the contact can be indirect. Some results given as binding are weak or reduced against the parent protein; the word gives no strength. Where a sequence is shown, tags or fusion partners need not be part of it.

By UniProt entry, the sequences of proteins in these tests, tags left out. Residues count along the entry.
UniProt Q9BXM7, residues 78-581: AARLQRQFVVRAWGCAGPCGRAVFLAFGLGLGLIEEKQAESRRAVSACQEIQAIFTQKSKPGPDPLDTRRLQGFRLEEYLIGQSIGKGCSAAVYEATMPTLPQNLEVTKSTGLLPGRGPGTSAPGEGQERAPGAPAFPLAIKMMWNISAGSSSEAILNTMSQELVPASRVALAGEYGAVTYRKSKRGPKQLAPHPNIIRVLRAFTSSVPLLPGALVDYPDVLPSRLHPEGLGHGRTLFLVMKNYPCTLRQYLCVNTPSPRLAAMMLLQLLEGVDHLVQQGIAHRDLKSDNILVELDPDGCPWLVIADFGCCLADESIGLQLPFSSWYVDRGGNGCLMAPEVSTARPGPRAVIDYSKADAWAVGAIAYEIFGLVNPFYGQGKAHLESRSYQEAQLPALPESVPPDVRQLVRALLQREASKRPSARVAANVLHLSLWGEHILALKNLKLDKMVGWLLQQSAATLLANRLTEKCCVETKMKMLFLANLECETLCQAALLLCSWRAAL

Biological target: PINK1-V5 (UniProt Q9BXM7)
Assay: co-IP; co-transfection of TAMM41-GFP and PINK1-V5; cells lysed 40 min on ice in lysis buffer with protease inhibitors (20 mM Tris pH 7.4, 137 mM NaCl, 2 mM EDTA, 10% glycerol, 1% NP-40); lysates incubated with the indicated antibodies and protein A/G-agarose beads overnight at 4 °C; western blot

B1: TAMM41-GFP (protein, UniProt Q96BW9 1-452)
chain: MALQTLQSSWVTFRKILSHFPEELSLAFVYGSGVYRQAGPSSDQKNAMLDFVFTVDDPVAWHSKNLKKNWSHYSFLKVLGPKIITSIQNNYGAGVYYNSLIMCNGRLIKYGVISTNVLIEDLLNWNNLYIAGRLQKPVKIISVNEDVTLRSALDRNLKSAVTAAFLMLPESFSEEDLFIEIAGLSYSGDFRMVVGEDKTKVLNIVKPNIAHFRELYGSILQENPQVVYKSQQGWLEIDKSPEGQFTQLMTLPKTLQQQINHIMDPPGKNRDVEETLFQVAHDPDCGDVVRLGLSAIVRPSSIRQSTKGIFTAGKSFGNPCVTYLLTEWLPHSWLQCKALYLLGACEMLSFDGHKLGYCSKVQTGITAAEPGGRTMSDHWQCCWKLYCPSEFSETLPVCRVFPSYCFIYQSYRCIGLQKQQHLCSPSSSPSLRQLLPSVLVGYFCCYCHFSKW
With B1 the binding was “binds”.
